Where a chain is given by its changes, count along the chain named. These are yes or no findings as the source states them, for the method shown. Some binding calls cover weakened binding; strength is not graded here.
B1: anti-human GPC3 IgG1 antibody clone 40 (antibody, V domains shown)
VH: CQSVEESGGRLVTPGTPLTLTCTVSGFSLSTYWMTWVRQAPGKGLEWIGIISPAGSAYYASWAKGRFTISKTSSATVDLKMTSLTTADTATYFCAGGGGMDPWGPGTLVTVSS
VL: DPVLTQTPSSVSAAVGGTVSISCQSSQSIVKNYLSWFQQKPGQPPKRLIYKASTLPSGVPSRFKGSGSGTEFTLTISDLECDDAATYYCAASYSDNIYVFGGGTEVVVKR
B2: anti-human GPC3 IgG1 antibody clone 121 (antibody, V domains shown)
VH: B1 VH with S52N, T86A, A87V
VL: B1 VL with S20T, S28N, V30I, N32D, A52T, D95G
B3: anti-human GPC3 IgG1 antibody clone 12 (antibody, V domains shown)
VH: B1 VH with S52N, A54S, Y58F, T86A
VL: B1 VL
B4: anti-human GPC3 IgG1 antibody clone 22 (antibody, V domains shown)
VH: B1 VH with S52N, A54T, S56R, T86A
VL: B1 VL with S20T, S22N, I29V, V30Y, K31S, Q39K, P56V, K64V, D95G
B5: anti-human GPC3 IgG1 antibody clone 49 (antibody, V domains shown)
VH: B1 VH with S52N, A54S, T86A
VL: B1 VL
B6: anti-human GPC3 IgG1 antibody clone 41 (antibody, V domains shown)
VH: B1 VH with P17A, S52N, A54G, T72A, T86A
VL: B1 VL with V30I, Q39H, K51R, K64E, S77N
B7: anti-human GPC3 IgG1 antibody clone 23 (antibody, V domains shown)
VH: B1 VH with P17A, S52N, A54G, T86A
VL: B1 VL with V30I, Q39H, K51R, K64E
B8: anti-human GPC3 IgG1 antibody clone 17 (antibody, V domains shown)
VH: CQSVEESGGRLVTPGTPLTLTCTVSGFSLSTYDMSWVRQAPGKGLEYIGWINSGGSPYYARWAKGRFTISKTSSTTVDLKMTSPTTEDTATYFCARHRSGYYGDIWGPGTLVTVSL
VL: DPVLTQTPSSVSAAVGDTVSINCQSSQNVYKNRLAWYQQKPGQPPKLLIYGASTLASGVPSRFKGSGSGTQFTLTISDLECDDAATYYCAGGYSTIVDNTFGGGTEVVVKR
B9: anti-human GPC3 IgG1 antibody clone 2 (antibody, V domains shown)
VH: CQSVEESGGRLVTPGTPLTLTCTVSGFSLSTYNMGWIRQAPGEGLEYIGTISSSTGNTYYATWAKGRFTISKTSSTTVDLKITNLTTEDTATYFCVRVNNMGDIWGPGTLVTVSL
VL: AIVMTQTPSSKSVAVGDTVTINCQASESVYKDNRLAWFQQKPGQAPKLLIYLASTLASGVPSRFKGSGSGTEFTLTISDVVCDDAATYYCGGYKDSLFDGFPFGGGTEVVVKR
B10: anti-human GPC3 IgG1 antibody clone 5 (antibody, V domains shown)
VH: B9 VH with I37V
VL: B9 VL with A45P

Biological target: cynomolgus monkey GPC3 protein (cynomolgus monkey)
Assay: ELISA, titration on cynomolgus GPC3 protein

binding, binds:
B1

Biological target: cynomolgus monkey GPC3 protein (cynomolgus monkey)
Assay: screening of recombinantly expressed rabbit clones (before the change to human constant regions)

binding, binds:
B2, B3, B4, B1, B5, B6, B7, B8, B9, B10
